The test in a line: qHTS Assay for Lipid Storage Modulators in Drosophila S3 Cells.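 On cell number change: cells counted by Cell Tracker Red CMTPX staining in the red channel.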 Particulars: BODIPY lipid droplet fluorescence, 18-24 h; for cell number change: measured here: cell count max response, cells fed with added oleic acid. Summed up: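 Drosophila S3 cells got compounds at several concentrations plus oleic acid (400 uM solution). Laser-scanning cytometry with 488 nm excitation read lipid droplets at 500-530 nm and cells at 575-640 nm. Percent activity was relative to 20 uM Triacsin C.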
(In general: In qHTS, concentration-response curves come from the screen itself.)

Where [1] appears, read: measured here: lipid fluorescence (Fed channel) AC50, cells fed with added oleic acid.
[2] abbreviates: measured here: cell number channel AC50, cells fed with added oleic acid.

The structures appear in SMILES notation. Some of the results follow. Further columns of the screen follow, without active or inactive calls. Most of these compounds were active or inconclusive in the main read-out, so they are no random draw. Potencies come from curve fits of mixed quality, noted in brackets.

Turning to `O=c1c(-c2cccc([N+](=O)[O-])c2)[n+]([O-])c2ccccc2n1O`, the cell number change came to 20.6%. Also, the concentration at half-maximal activity (AC50) under setting [1] was 29.1 µM [rising, single point].
On to `CCCCOc1ccc(CONS(=O)(=O)c2ccc(NC(C)=O)cc2)cc1Cl`, for which the cell number change came out at 4.5%. Also, the AC50 under setting [1] was 6.51 µM [rising, single point].
Take `CCn1cc(C(=O)N2CCCC2)c(=O)c2cc(S(=O)(=O)N(C)C)ccc21`: the cell number change is -45.7%. Besides, the AC50 under setting [2] is 0.146 µM [falling, full curve]. Moreover, the concentration at half-maximal activity (AC50) under setting [1] was 0.0164 µM [falling, full curve, poor fit].
Consider `Cc1ccc(-c2csc(NC(=O)CCNC(=O)c3ccc(Cl)cc3)n2)cc1`, for which the cell number change was -10.2%.
Take `O=C(C1CCCN(S(=O)(=O)c2ccccc2)C1)N1CCCCC1` (stereo not drawn): the cell number change was 21.8%.
Regarding `COc1cnn(-c2ccc(C)cc2)c(=O)c1Cl`, the cell number change was -11%. Besides, under setting [2], the AC50 was 6.51 µM [rising, single point].
Take `O=C(Nc1ccc([N+](=O)[O-])cc1)c1cn(-c2ccccc2)nc1-c1cc2ccccc2o1`: the cell number change is -37.3%. In addition, the AC50 under setting [2] was 7.31 µM [falling, partial curve, poor fit]. For the same compound, the AC50 under setting [1] is 5.17 µM [falling, full curve].
Regarding `COc1ccc(OCCn2cncn2)cc1`, the cell number change worked out at 6.2%. Besides, the half-maximal activity concentration (AC50) under setting [1] was 3.66 µM [falling, partial curve].
On to `CC1CC2=C(CC1/C=N/NC(N)=S)C(C)(C)CCC2` (stereo not drawn), for which the cell number change is -14.5%. Moreover, the AC50 under setting [2] is 0.82 µM [rising, partial curve]. In addition, under setting [1], the concentration at half-maximal activity (AC50) is 0.517 µM [rising, full curve].
In the case of `Cc1nn(Cc2ccccc2Cl)c(C)c1NC(=O)c1cc(-c2ccc(F)cc2)on1`, the half-maximal activity concentration (AC50) reads like this: under setting [2], 0.116 µM [rising, partial curve, poor fit]; under setting [1], 0.291 µM [rising, partial curve, poor fit].
Turning to `CCOc1ccc(CN(C(=O)c2cccs2)C2CCS(=O)(=O)C2)cc1` (stereo not drawn), the cell number change is -36.1%. In addition, the half-maximal activity concentration (AC50) under setting [2] was 29.1 µM [falling, single point].
As for `CCOCCOc1cccc(C(=O)NC(C)c2ccc3ccccc3c2)c1` (stereo not drawn), the concentration at half-maximal activity (AC50) under setting [1] was 20.6 µM [falling, single point].
As for `Cc1ccc(SCCN2CCC(C(C)(C)C)CCC2=O)cc1` (stereo not drawn), the cell number change was -8.74%.
For `COc1cccc(NC(=O)COc2cccc(-n3cnnn3)c2)c1`, the cell number change is -8.44%. Besides, under setting [2], the concentration at half-maximal activity (AC50) was 0.0326 µM [falling, full curve, poor fit]. Also, the AC50 under setting [1] is 0.0259 µM [falling, full curve, poor fit].
For the compound `Cc1nc(C)c(-c2nnc(-c3ccc(C(C)(C)C)cc3)o2)cc1C(=O)NN`, the cell number change worked out at 51.5%. Moreover, the half-maximal activity concentration (AC50) under setting [2] was 29.1 µM [rising, single point]. Moreover, under setting [1], the half-maximal activity concentration (AC50) was 29.1 µM [rising, single point].
Turning to `COc1ccccc1CC(=O)NNC(=O)c1ccc(C(C)(C)C)cc1`, the cell number change was found to be 24%.
Same read-out and setting: the value for `Cc1cc(NC(=O)CCN2CCCCC2)ccc1Br` was 23.5%.
Take `Cc1cc(=O)[nH]c(SCC(=O)Nc2cccc(S(=O)(=O)N3CCOCC3)c2)n1`: the cell number change worked out at 8.84%. Moreover, the concentration at half-maximal activity (AC50) under setting [1] is 0.517 µM [rising, full curve].
As to `CC(=O)Oc1ccc2oc(/C=C/N(C)C)c([N+](=O)[O-])c2c1`, the cell number change is -11.4%. Besides, the AC50 under setting [2] was 0.82 µM [rising, full curve]. Moreover, the AC50 under setting [1] is 1.3 µM [rising, full curve].
For the compound `Cc1ccc2nc(Cl)c(/C=N/NC(=O)[C@H]3C[C@@H]3c3ccccc3)cc2c1`, the cell number change is 21.7%. For the same compound, the concentration at half-maximal activity (AC50) under setting [2] is 1.03 µM [rising, full curve, poor fit]. The concentration at half-maximal activity (AC50) under setting [1] is 0.259 µM [rising, full curve, poor fit].
For `CC1CCCN(C(=O)COc2ccc(-c3ccccc3)cc2)C1` (stereo not drawn), the AC50 is 6.51 µM [rising, single point] under setting [2] and 6.51 µM [rising, single point] under setting [1].
As for `CCc1ccc2[nH]c(=O)c(CN(Cc3ccc(OC)cc3)Cc3nnnn3CCOC)cc2c1`, the cell number change was 19.5%. Under setting [2], the AC50 is 0.082 µM [rising, full curve, poor fit]. Moreover, the concentration at half-maximal activity (AC50) under setting [1] is 4.61 µM [rising, full curve].
As to `Cc1ccc(C(C)C)c(OCCn2c(=O)oc3ccccc32)c1`, the cell number change is -54.3%. For the same compound, the AC50 under setting [1] is 0.58 µM [rising, partial curve, poor fit].
`Cc1ccc(N=Nc2ccc(O)cc2)c(Br)c1`: the cell number change is -46.8%. In addition, the half-maximal activity concentration (AC50) under setting [2] was 23.1 µM [falling, single point].
On to `O=C(COC(=O)c1cc([N+](=O)[O-])ccc1NCCO)Nc1ccc2c(c1)OCO2`, for which the cell number change was -51%.
In the case of `CCC(C(=O)NC1CCCC1)N(Cc1ccco1)C(=O)CNS(=O)(=O)c1ccccc1` (stereo not drawn), the cell number change was -10.1%. Besides, under setting [1], the AC50 was 6.51 µM [rising, single point].
Take `O=C(CSc1nnc(-c2c[nH]c3ccccc23)n1CC1CCCO1)Nc1ccc2c(c1)OCCO2` (stereo not drawn): the AC50 under setting [1] was 3.66 µM [rising, partial curve].
`CC(C)(C)C(=O)Nc1nc(C2CCCN2S(=O)(=O)c2ccc(Cl)cc2)cs1` (stereo not drawn): the cell number change amounted to 60.8%. Under setting [2], the AC50 was 18.4 µM [rising, single point]. Under setting [1], the AC50 is 29.1 µM [rising, single point].
As to `CCN(CC)S(=O)(=O)c1cccc(NC(=O)CC2CCCC2)c1`, the cell number change is 12.8%.
For the compound `CN(C)S(=O)(=O)c1ccc(NC(=O)CCNC(=O)c2ccc([N+](=O)[O-])cc2)cc1`, the cell number change amounted to 24.3%.
Turning to `c1ccc2c(-n3cnnn3)cccc2c1`, the cell number change stood at 10.8%.
`O=c1ccc2c(-c3ccccc3)c3ccc(O)cc3oc-2c1`: the cell number change was -97.2%. Also, under setting [2], the half-maximal activity concentration (AC50) was 23.1 µM [falling, single point]. Moreover, the AC50 under setting [1] was 16.4 µM [falling, partial curve].
Regarding `CCCOC(=O)c1ccc(NC(=O)C2C3C=CC(O3)C2C(=O)O)cc1` (stereo not drawn), under setting [1], the AC50 was 0.103 µM [rising, full curve, poor fit].
Regarding `CCOC(=O)c1[nH]ncc1CN1CCC(Cc2cccc(OC)c2)(C(=O)OCC)CC1`, the cell number change is -20%. Besides, the AC50 under setting [1] was 0.13 µM [falling, full curve, poor fit].
On to `COc1ccc(CCNC(=O)Cn2c(=O)n(-c3cc(F)ccc3F)c(=O)c3sccc32)cc1OC`, for which the cell number change stood at 33.2%. For the same compound, the concentration at half-maximal activity (AC50) under setting [2] was 14.6 µM [rising, partial curve, poor fit]. Moreover, the AC50 under setting [1] was 14.6 µM [rising, partial curve].
With `CN(Cc1ccccc1)S(=O)(=O)c1ccc2c(c1)n(C)c(=O)n2C`, the cell number change stood at 160%. The AC50 under setting [2] is 16.4 µM [rising, partial curve]. The concentration at half-maximal activity (AC50) under setting [1] is 18.4 µM [rising, partial curve].
`O=C1N/C(=C/c2ccc(N3CCOCC3)o2)C(=O)N1c1ccccc1`: the cell number change was -34.6%. Besides, under setting [2], the AC50 was 0.231 µM [falling, full curve, poor fit]. Also, the half-maximal activity concentration (AC50) under setting [1] is 7.31 µM [falling, partial curve].
For the compound `CCC(C)n1c(SCC(=O)NCc2ccco2)nnc1-c1cccc(S(=O)(=O)N2CCOCC2)c1` (stereo not drawn), the cell number change was 43.7%. Also, the AC50 under setting [2] was 7.31 µM [rising, partial curve]. Further, the AC50 under setting [1] was 0.82 µM [falling, full curve, poor fit].
For `O=[N+]([O-])c1cc(S(=O)(=O)N2CCCC2)ccc1OCc1ccccc1`, the cell number change is -1.32%.
With `O=C(COC(=O)c1cc(S(=O)(=O)N2CCOCC2)ccc1O)NCCc1ccccc1`, the cell number change was 32.6%. For the same compound, the AC50 under setting [2] was 32.6 µM [rising, single point].
With `Cc1cccc(N2C(=NC(=O)c3ccccc3)SC3CS(=O)(=O)CC32)c1` (stereo not drawn), the cell number change is -18.5%.
On to `Cc1ccccc1NC(=O)COc1coc(CN2CCN(c3ccccc3)CC2)cc1=O`, for which, under setting [2], the concentration at half-maximal activity (AC50) was 0.58 µM [falling, single point].
Take `COc1ccc(NC(=O)CCCn2c(=S)[nH]c3ccccc3c2=O)cc1`: the cell number change amounted to 51.5%. Moreover, under setting [2], the concentration at half-maximal activity (AC50) was 29.1 µM [rising, single point].
As to `O=C1NN(c2ccccc2)C(=O)/C1=C/c1ccc(Sc2cccc3ccccc23)o1`, the cell number change is -18.2%. Moreover, the concentration at half-maximal activity (AC50) under setting [1] is 32.6 µM [falling, partial curve].
As to `COCn1c(COc2ccccc2)nc2ccccc21`, the cell number change worked out at 22.7%.
On the same count and under the same terms, the value for `O=C(CSCSCC(=O)Nc1ccc2c(c1)OCO2)Nc1ccc2c(c1)OCO2` was 1.41%.
In the case of `Cc1ccc(C(=O)NNC(=O)c2ccncc2)cc1[N+](=O)[O-]`, the cell number change was determined as 11.8%. Besides, the AC50 under setting [1] is 18.4 µM [rising, single point].
`COc1ccc(OCCOC(=O)Nc2ccccc2)cc1`: the cell number change is 31.5%. Besides, the half-maximal activity concentration (AC50) under setting [2] is 7.31 µM [rising, partial curve].
In the case of `COc1ccc(CNC(=O)c2cc3c(s2)CS(=O)C3)cc1` (stereo not drawn), the cell number change turned out to be 11.7%.
Regarding `CCCn1c(SC(C)C(=O)NCC2CCCO2)nc2cc(Cl)ccc2c1=O` (stereo not drawn), the cell number change was 22.2%. The half-maximal activity concentration (AC50) under setting [2] is 0.291 µM [rising, full curve, poor fit].
Take `CC1CCc2sc(C(=O)NCC3CCCO3)cc2C1` (stereo not drawn): the cell number change is -5.55%. In addition, the AC50 under setting [1] was 5.8 µM [falling, partial curve].
As for `Cc1ccc(NC(=O)C2CCN(C(=O)c3ccc(Cl)cc3)CC2)nc1`, the cell number change worked out at 13.3%. In addition, the AC50 under setting [1] was 3.66 µM [rising, single point].
For `CCOc1ccccc1OCCCC(=O)N(C)CC(=O)Nc1cc(C)ccc1C`, the AC50 under setting [1] was 0.116 µM [rising, full curve, poor fit].
Consider `NS(=O)(=O)c1ccc(NC(=O)c2cccc(N3C(=O)c4ccccc4C3=O)c2)cc1`, for which the cell number change turned out to be 15.3%. In addition, the AC50 under setting [1] was 0.206 µM [rising, full curve].
For `CCc1nc2sc3ccccc3c(=O)c2c(=O)n1Cc1ccc(OC)cc1`, the cell number change was -19.1%. Further, the AC50 under setting [1] is 29.1 µM [falling, single point].
Consider `CC(OC(=O)CN1C(=O)c2ccccc2C1=O)C(=O)NC1CCCCC1` (stereo not drawn), for which the cell number change was -8.55%. Further, the concentration at half-maximal activity (AC50) under setting [1] is 18.4 µM [falling, partial curve, poor fit].
As for `CCCc1[nH]n(-c2ccc(F)cc2)c(=O)c1C=Nc1ccc(C)cc1`, the cell number change is 33.4%. The concentration at half-maximal activity (AC50) under setting [2] is 32.6 µM [rising, single point].
Turning to `Cc1c(C(=O)OCC(=O)N2CC(=O)Nc3ccccc32)oc2ccccc12`, the cell number change stood at 31.5%. Also, the AC50 under setting [2] was 5.8 µM [rising, full curve, poor fit]. The concentration at half-maximal activity (AC50) under setting [1] is 5.17 µM [rising, single point].
As for `COCCn1nnnc1C(c1ccccc1OC)N1CCN(C(=O)c2ccco2)CC1` (stereo not drawn), the cell number change stood at 21.6%.

Broadly, the AC50 is the midpoint of the concentration-response curve, whichever way the signal moves.

The record behind these values is PubChem BioAssay AID2685 (National Center for Advancing Translational Sciences (NCATS), 2010).
